The nature of data set [1]: Uniformity of distribution of the active ingredients in the blend by HPLC. The class given is physicochemical. How it is done: It is usually determined according to known methods, for instance by taking samples from different parts of the powder and testing the component by HPLC or other equivalent analytical methods.
The uniformity of distribution of the active ingredients was evaluated by withdrawing 12 samples from different parts of the blend and evaluated by HPLC.

Data set [2] is described as follows: Particle size distribution (PSD) by Malvern analysis, initially and after open-tray exposure. The class given is physicochemical. The note with it: upon exposure to 30° C./65% RH for 3 days and 25° C./90% RH for 4 hours. How it is done:
The size of the particles active is determined by measuring the characteristic equivalent sphere diameter, known as volume diameter, by laser diffraction. In the reported examples, the volume diameter has been determined using a Malvern apparatus. However, other equivalent apparatus may be used.
Co-micronized microparticles and reference micronized glycopyrronium bromide were exposed to the following conditions:
Thin layer (˜0.5 cm) in open tray for 3 days at 30° C./65% relative humidity (RH);
Thin layer (˜0.5 cm) in open tray for 4 hours at 25° C./90% RH
(i) particle size distribution (PSD) in terms of d(v0.1), d(v0.5) and d(v0.9) by Malvern analysis, […]

Take `C[N+]1(C)CCC(OC(=O)C(O)(c2ccccc2)C2CCCC2)C1` (racemic) [GB, glycopyrronium bromide]: the Uniformity of distribution is 100.8 (±1.6) in data set [1] (Example 3 formulation (FF 6 μg/BDP 100 μg/GB 12.5 μg per 10 mg carrier), 12 samples, mean value±RSD) and 101.5 (±2.5) in data set [1] (Example 4 formulation (FF 6 μg/BDP 100 μg/GB 25 μg per 10 mg carrier)). Further, in data set [2], the “Variation in particle size distribution upon exposure” value is on record as “significant increase of the particle size”.

Values taken from patent US10350164B2, “Process for preparing a dry powder formulation comprising an anticholinergic, a corticosteroid and a beta-adrenergic” (CHIESI FARMACEUTICI S.p.A., priority 2017, dated 2019).
